Experimental data from PMC5386752.
These are yes or no findings as the source states them, for the method shown. In cells and extracts the contact can be indirect. Some entries that bind do so weakly or less than the wild type.

Columns and labels:
[1] = target: FLAG-HA-tagged FBXW7, wild type (UniProt Q969H0); experiment: co-IP; HEK293T cells co-transfected with FLAG-hnRNPK (or mutants) and FLAG-HA-FBXW7 (or WD40 mutant); HA-tagged FBXW7 immunoprecipitated from cell extracts with anti-HA resin, immunoblotting; RIPA lysis buffer; in some panels cells treated with GSK3i IX (10 uM, 10 h), U0126 (10 uM, 2 h) or DMSO
[2] = target: endogenous (native) FBXW7 (human (endogenous in SW1990)) (UniProt Q969H0); experiment: co-IP; native FBXW7 immunoprecipitated from SW1990 cell extracts with anti-FBXW7 antibody, immunoblotting; rabbit IgG as control; RIPA lysis buffer

binding [1]	binding [2]	Substance
no binding	–	FLAG-tagged hnRNPK (S116A/T120A) (from UniProt P61978 1-463)
binds	–	FLAG-tagged hnRNPK (heterogeneous nuclear ribonucleoprotein K), wild type (from UniProt P61978 1-463)
–	binds	endogenous hnRNPK (from UniProt P61978 1-463)
